# Measurements reported in the supplement of paper PMC11732987, “Enantioselective OTUD7B fragment discovery through chemoproteomics screening and high-throughput optimisation” (Communications Chemistry, 2025).
# Chains of the proteins cited; added tags and fusions are not shown. Lines headed by an entry give the natural chain unless they say otherwise; changes in a name come on top. Residues count along the entry.
# UniProt Q9H8H3: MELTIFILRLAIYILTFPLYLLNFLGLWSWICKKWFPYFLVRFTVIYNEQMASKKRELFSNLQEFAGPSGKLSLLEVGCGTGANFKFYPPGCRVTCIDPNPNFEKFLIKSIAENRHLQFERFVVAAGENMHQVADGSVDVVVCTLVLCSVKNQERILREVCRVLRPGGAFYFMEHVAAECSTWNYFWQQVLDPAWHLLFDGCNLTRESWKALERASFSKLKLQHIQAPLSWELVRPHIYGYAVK
# UniProt Q9BU76: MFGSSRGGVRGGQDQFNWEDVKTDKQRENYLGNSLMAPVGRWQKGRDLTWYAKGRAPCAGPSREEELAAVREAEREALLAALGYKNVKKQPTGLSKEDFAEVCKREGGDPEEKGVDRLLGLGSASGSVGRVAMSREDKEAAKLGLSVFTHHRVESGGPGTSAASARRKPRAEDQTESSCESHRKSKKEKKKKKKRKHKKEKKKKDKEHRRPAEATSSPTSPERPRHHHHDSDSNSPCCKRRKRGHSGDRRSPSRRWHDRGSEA
# UniProt Q6NTE8: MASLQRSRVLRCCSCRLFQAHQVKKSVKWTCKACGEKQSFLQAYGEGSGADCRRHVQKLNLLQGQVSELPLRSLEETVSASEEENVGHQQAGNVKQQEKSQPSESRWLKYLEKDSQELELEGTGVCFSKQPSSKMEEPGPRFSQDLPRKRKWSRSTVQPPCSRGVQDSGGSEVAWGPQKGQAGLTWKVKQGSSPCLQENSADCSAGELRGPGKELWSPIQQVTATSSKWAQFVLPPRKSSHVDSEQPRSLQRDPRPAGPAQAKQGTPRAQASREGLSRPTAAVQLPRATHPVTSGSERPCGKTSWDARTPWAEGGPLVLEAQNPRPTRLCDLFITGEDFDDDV
# UniProt Q99550, 1052-1071: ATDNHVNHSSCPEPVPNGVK
# UniProt Q9NU22: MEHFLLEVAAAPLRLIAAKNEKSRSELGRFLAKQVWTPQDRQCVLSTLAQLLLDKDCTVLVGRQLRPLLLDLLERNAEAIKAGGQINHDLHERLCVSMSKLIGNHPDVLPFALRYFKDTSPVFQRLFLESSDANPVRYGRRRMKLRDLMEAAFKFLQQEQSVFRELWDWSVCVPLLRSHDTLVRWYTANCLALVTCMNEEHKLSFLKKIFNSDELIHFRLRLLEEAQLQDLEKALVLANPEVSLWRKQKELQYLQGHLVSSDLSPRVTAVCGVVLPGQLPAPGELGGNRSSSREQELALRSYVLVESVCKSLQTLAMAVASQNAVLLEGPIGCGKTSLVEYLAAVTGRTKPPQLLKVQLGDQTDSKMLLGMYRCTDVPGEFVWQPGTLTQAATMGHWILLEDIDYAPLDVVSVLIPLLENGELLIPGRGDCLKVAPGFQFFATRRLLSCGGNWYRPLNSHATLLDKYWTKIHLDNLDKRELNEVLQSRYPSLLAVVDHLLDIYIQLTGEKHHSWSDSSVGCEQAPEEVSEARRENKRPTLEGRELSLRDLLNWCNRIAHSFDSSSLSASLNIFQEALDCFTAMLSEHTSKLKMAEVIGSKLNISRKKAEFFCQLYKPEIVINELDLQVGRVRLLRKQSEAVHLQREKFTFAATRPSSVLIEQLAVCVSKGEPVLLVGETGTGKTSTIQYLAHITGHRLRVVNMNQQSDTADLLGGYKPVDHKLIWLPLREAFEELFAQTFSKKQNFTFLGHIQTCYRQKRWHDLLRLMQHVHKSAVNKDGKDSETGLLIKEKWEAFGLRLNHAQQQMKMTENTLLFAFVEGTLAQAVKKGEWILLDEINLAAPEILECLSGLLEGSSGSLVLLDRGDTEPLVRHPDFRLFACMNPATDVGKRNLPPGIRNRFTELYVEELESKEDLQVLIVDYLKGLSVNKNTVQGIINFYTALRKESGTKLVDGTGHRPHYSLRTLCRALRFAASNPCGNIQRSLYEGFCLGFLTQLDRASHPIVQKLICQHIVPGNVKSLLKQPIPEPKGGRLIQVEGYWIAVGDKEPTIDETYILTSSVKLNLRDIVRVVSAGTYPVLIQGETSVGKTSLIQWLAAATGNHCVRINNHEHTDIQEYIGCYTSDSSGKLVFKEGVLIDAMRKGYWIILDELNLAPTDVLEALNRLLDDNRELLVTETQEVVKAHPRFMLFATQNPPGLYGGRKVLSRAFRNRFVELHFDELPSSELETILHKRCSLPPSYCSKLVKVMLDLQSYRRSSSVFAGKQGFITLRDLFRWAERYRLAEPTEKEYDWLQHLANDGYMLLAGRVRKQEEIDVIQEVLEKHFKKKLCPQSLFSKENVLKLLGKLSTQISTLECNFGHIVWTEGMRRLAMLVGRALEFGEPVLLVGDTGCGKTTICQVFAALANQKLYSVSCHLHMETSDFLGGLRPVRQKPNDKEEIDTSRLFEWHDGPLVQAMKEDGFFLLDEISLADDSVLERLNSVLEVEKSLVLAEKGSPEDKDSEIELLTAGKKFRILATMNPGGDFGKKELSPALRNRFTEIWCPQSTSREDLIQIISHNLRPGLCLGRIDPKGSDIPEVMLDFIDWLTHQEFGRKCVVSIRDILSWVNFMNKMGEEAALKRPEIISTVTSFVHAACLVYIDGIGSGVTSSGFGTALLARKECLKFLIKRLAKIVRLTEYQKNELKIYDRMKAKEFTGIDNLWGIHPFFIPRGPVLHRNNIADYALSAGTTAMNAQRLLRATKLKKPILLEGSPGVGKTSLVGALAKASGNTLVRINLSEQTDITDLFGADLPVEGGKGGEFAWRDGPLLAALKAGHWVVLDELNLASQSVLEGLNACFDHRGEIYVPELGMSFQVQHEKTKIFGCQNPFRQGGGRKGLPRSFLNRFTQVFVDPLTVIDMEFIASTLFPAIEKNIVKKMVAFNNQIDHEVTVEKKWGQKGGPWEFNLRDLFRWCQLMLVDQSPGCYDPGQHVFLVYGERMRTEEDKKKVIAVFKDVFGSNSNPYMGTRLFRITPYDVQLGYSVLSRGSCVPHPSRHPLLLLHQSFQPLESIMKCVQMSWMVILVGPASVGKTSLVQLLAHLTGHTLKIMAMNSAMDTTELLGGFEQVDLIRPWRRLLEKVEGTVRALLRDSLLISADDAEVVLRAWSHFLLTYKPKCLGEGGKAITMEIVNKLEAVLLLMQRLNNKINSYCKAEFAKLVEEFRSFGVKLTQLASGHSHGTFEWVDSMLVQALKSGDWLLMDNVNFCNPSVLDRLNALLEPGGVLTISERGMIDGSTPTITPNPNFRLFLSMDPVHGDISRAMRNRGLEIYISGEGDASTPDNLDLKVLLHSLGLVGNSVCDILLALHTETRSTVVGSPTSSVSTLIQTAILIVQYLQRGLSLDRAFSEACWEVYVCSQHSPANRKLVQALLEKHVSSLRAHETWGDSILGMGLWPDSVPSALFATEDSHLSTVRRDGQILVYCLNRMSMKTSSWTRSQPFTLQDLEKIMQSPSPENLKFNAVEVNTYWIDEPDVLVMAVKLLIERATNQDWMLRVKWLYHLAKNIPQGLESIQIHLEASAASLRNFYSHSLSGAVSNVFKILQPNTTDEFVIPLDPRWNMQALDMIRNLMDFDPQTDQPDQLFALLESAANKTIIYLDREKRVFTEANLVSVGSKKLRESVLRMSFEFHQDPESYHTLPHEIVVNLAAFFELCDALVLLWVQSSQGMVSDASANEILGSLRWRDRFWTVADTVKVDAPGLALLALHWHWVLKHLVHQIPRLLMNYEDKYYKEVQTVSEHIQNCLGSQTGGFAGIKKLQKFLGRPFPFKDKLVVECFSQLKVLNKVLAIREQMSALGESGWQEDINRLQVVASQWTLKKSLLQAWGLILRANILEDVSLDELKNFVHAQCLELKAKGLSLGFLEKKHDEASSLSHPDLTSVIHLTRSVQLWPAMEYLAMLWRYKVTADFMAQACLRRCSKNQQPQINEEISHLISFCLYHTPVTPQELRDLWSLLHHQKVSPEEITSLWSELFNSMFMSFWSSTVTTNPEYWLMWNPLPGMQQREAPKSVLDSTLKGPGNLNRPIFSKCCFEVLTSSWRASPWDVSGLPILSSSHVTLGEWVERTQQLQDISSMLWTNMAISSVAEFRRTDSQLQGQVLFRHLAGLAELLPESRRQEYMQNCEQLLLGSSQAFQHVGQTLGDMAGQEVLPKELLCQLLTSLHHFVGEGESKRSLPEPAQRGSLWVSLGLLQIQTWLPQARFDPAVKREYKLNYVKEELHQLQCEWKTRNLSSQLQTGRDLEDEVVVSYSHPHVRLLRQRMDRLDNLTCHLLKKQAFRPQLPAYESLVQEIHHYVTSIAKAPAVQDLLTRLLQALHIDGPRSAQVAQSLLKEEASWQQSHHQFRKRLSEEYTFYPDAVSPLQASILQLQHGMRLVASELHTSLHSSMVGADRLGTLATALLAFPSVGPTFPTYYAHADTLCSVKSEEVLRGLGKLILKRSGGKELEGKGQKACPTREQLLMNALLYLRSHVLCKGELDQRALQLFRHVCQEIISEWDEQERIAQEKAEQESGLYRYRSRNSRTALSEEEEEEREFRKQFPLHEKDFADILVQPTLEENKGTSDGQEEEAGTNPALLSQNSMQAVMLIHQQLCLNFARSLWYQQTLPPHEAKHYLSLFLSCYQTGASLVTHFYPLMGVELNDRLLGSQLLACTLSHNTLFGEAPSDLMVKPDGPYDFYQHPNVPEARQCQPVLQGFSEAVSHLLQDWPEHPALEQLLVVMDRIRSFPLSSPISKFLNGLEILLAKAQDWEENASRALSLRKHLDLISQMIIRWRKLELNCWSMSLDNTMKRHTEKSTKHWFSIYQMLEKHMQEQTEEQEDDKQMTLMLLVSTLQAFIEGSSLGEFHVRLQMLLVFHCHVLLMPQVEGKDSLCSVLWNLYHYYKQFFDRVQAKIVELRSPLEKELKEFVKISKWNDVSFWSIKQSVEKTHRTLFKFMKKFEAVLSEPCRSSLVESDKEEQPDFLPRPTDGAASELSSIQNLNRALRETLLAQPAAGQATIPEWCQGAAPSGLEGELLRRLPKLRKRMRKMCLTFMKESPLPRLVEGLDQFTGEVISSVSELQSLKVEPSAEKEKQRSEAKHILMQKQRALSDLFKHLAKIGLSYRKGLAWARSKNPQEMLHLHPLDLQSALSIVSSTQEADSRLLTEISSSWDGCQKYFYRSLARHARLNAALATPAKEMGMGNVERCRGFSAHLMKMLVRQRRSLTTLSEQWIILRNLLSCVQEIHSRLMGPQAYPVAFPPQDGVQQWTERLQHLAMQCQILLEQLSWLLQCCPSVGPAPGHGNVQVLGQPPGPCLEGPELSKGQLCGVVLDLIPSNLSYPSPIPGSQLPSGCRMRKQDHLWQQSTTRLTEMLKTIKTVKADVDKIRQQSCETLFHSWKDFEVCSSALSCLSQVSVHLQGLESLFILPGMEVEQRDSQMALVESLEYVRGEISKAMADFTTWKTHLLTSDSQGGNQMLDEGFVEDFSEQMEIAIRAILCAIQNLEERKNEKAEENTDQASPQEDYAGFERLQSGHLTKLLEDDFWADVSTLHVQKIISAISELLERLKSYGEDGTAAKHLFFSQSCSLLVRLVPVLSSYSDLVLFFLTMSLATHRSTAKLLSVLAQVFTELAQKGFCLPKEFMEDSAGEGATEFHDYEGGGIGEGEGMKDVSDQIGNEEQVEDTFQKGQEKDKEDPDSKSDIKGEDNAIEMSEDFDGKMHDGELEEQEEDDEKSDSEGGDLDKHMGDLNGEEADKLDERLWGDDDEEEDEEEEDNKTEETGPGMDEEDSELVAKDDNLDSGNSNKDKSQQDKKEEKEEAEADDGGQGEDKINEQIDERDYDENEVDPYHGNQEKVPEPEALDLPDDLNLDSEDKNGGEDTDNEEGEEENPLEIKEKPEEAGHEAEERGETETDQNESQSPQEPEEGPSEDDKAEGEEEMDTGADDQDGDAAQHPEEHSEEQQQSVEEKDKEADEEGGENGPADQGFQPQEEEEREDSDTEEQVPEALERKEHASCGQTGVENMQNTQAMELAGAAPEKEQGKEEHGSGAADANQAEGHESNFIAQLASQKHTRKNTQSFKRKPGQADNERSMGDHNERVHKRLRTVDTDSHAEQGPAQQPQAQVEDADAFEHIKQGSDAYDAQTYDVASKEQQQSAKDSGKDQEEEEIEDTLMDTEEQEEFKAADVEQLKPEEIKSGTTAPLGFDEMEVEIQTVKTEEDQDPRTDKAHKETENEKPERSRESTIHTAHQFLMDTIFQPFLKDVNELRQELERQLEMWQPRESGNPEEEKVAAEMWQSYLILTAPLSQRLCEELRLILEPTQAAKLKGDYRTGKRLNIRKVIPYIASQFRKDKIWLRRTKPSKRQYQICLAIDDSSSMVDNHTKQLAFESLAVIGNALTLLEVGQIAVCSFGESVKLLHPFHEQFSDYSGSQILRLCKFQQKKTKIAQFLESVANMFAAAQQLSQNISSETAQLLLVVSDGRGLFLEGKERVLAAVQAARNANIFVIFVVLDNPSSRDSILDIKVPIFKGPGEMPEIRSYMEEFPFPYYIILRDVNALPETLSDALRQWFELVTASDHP
# UniProt Q00013, 228-247: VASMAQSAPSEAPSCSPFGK
# The list shows a part of the results. The data scatter; read single values as rough.
# Compound: ClCC(=O)N[C@@H]1CCCc2ccccc12
# Experiment: log2 mean competition ratio of IA-DTB cysteine labelling (DMSO/compound) (log2 ratio); higher = stronger cysteine engagement by compound
# Conditions: 50 µM; treatment time: 4 h; cell line lysate: HEK293T
# Method: (§1)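 IA-DTB competitive cysteine chemoproteomics in HEK293T RIPA lysate. Lysates were treated with compound 29 or 30 at 50 or 200 µM for 4 h, then IA-DTB (500 µM, 1 h), trypsin-digested, NeutrAvidin-enriched and analysed by diaPASEF. Competition ratio = intensity DMSO / intensity compound (n=4 treated, n=64 DMSO); binding: mean log2 CR ≥ 1 and p ≤ 0.05 plus QC filters. Target is the cysteine site.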
row,Target,log2 mean competition ratio
1,MKLN1 C411 (UniProt Q9UL63),0.219
2,MOB4 C51 (UniProt Q9Y3A3),-0.675
3,MFSD6 C743 (UniProt Q6ZSS7),-0.0114
4,MKLN1 C560 (UniProt Q9UL63),-0.0569
5,METTL7A C96 (UniProt Q9H8H3),0.0182
6,MKI67 C3199 (UniProt P46013),0.273
7,MMTAG2 C179 (UniProt Q9BU76),0.0223
8,MRNIP C300 (UniProt Q6NTE8),-0.171
9,MGAT1 C303 (UniProt P26572),0.082
10,MPG C61 (UniProt P29372),0.116
11,MICU1 C62 (UniProt Q9BPX6),0.0139
12,MICAL3 C1760 (UniProt Q7RTP6),0.368
13,MLLT6 C820,-0.191
14,MKI67 C226 (UniProt P46013),-0.00679
15,MED9 C75 (UniProt Q9NWA0),-0.239
16,MIPEP C281 (UniProt Q99797),-0.08
17,MEPCE C153 (UniProt Q7L2J0),0.236
18,MPHOSPH9 C910 (UniProt Q99550),0.1
19,MFSD5 C33 (UniProt Q6N075),-0.0139

row,Target,log2 mean competition ratio
1,MLH1 C233 (UniProt P40692),-0.218
2,MDN1 C4259 (UniProt Q9NU22),-0.0355
3,MOB4 C134 (UniProt Q9Y3A3),0.172
4,MORC4 C349,0.458
5,MMS19 C599 (UniProt Q96T76),0.335
6,MOB4 C119 (UniProt Q9Y3A3),-0.308
7,MIEF1 C165,-0.154
8,MMUT C560 (UniProt P22033),0.00257
9,MIA2 C1187 (UniProt Q96PC5),-0.221
10,MKRN2 C337 (UniProt Q9H000),-0.00443
11,MLLT1 C5 (UniProt Q03111),0.0733
12,MIA3 C1486 (UniProt Q5JRA6),-0.0102
13,MPP1 C179 (UniProt Q00013),0.0226
14,MEPCE C429 (UniProt Q7L2J0),-0.065
15,MGMT C150 (UniProt P16455),-0.389
16,MLH1 C494 (UniProt P40692),-0.204
17,MED19 C163 (UniProt A0JLT2),-0.0525
18,MPP1 C242 (UniProt Q00013),0.00346

# Same assay, conditions: 200 µM; treatment time: 4 h; cell line lysate: HEK293T
row,Target,log2 mean competition ratio
1,MKLN1 C411 (UniProt Q9UL63),0.013
2,MOB4 C51 (UniProt Q9Y3A3),-0.921
3,MFSD6 C743 (UniProt Q6ZSS7),0.0755
4,MKLN1 C560 (UniProt Q9UL63),-0.3
5,METTL7A C96 (UniProt Q9H8H3),0.0841
6,MKI67 C3199 (UniProt P46013),0.328
7,MMTAG2 C179 (UniProt Q9BU76),-0.101
8,MRNIP C300 (UniProt Q6NTE8),-0.151
9,MGAT1 C303 (UniProt P26572),-0.0156
10,MPG C61 (UniProt P29372),-0.0629
11,MICU1 C62 (UniProt Q9BPX6),-0.0569
12,MICAL3 C1760 (UniProt Q7RTP6),-0.513
13,MLLT6 C820,-0.141
14,MKI67 C226 (UniProt P46013),-0.0314
15,MED9 C75 (UniProt Q9NWA0),-0.0934
16,MIPEP C281 (UniProt Q99797),0.102
17,MEPCE C153 (UniProt Q7L2J0),-0.233
18,MPHOSPH9 C910 (UniProt Q99550),0.0488
19,MFSD5 C33 (UniProt Q6N075),0.232

row,Target,log2 mean competition ratio
1,MED13 C1399 (UniProt Q9UHV7),-0.313
2,MLH1 C233 (UniProt P40692),-0.0821
3,MDN1 C4259 (UniProt Q9NU22),-0.173
4,MOB4 C134 (UniProt Q9Y3A3),-0.0118
5,MORC4 C349,-0.016
6,MMS19 C599 (UniProt Q96T76),0.0574
7,MOB4 C119 (UniProt Q9Y3A3),0.0494
8,MIEF1 C165,-0.0276
9,MMUT C560 (UniProt P22033),0.157
10,MIA2 C1187 (UniProt Q96PC5),0.237
11,MKRN2 C337 (UniProt Q9H000),-0.15
12,MLLT1 C5 (UniProt Q03111),-0.174
13,MIA3 C1486 (UniProt Q5JRA6),-0.0645
14,MPP1 C179 (UniProt Q00013),-0.0862
15,MEPCE C429 (UniProt Q7L2J0),0.228
16,MLH1 C494 (UniProt P40692),-0.129
17,MED19 C163 (UniProt A0JLT2),0.176
18,MPP1 C242 (UniProt Q00013),-0.0605

# Compound: ClCC(=O)N[C@H]1CCCc2ccccc12
# Experiment: as above
# Conditions: 50 µM; treatment time: 4 h; cell line lysate: HEK293T
# Method: as §1
row,Target,log2 mean competition ratio
1,MKLN1 C411 (UniProt Q9UL63),-0.0609
2,MOB4 C51 (UniProt Q9Y3A3),-0.484
3,MFSD6 C743 (UniProt Q6ZSS7),-0.0704
4,MKLN1 C560 (UniProt Q9UL63),-0.0383
5,METTL7A C96 (UniProt Q9H8H3),0.023
6,MKI67 C3199 (UniProt P46013),0.204
7,MMTAG2 C179 (UniProt Q9BU76),-0.12
8,MRNIP C300 (UniProt Q6NTE8),-0.0733
9,MGAT1 C303 (UniProt P26572),-0.376
10,MPG C61 (UniProt P29372),0.0462
11,MICU1 C62 (UniProt Q9BPX6),0.05
12,MICAL3 C1760 (UniProt Q7RTP6),-0.371
13,MLLT6 C820,0.0969
14,MKI67 C226 (UniProt P46013),0.137
15,MED9 C75 (UniProt Q9NWA0),0.00583
16,MIPEP C281 (UniProt Q99797),-0.307
17,MEPCE C153 (UniProt Q7L2J0),0.361
18,MPHOSPH9 C910 (UniProt Q99550),0.0581
19,MFSD5 C33 (UniProt Q6N075),0.21

row,Target,log2 mean competition ratio
1,MED13 C1399 (UniProt Q9UHV7),-0.0911
2,MLH1 C233 (UniProt P40692),-0.275
3,MDN1 C4259 (UniProt Q9NU22),-0.658
4,MOB4 C134 (UniProt Q9Y3A3),0.0656
5,MORC4 C349,0.109
6,MMS19 C599 (UniProt Q96T76),0.511
7,MOB4 C119 (UniProt Q9Y3A3),-0.15
8,MIEF1 C165,-0.0181
9,MMUT C560 (UniProt P22033),-0.252
10,MIA2 C1187 (UniProt Q96PC5),0.13
11,MKRN2 C337 (UniProt Q9H000),0.186
12,MLLT1 C5 (UniProt Q03111),0.0657
13,MIA3 C1486 (UniProt Q5JRA6),0.34
14,MPP1 C179 (UniProt Q00013),-0.119
15,MEPCE C429 (UniProt Q7L2J0),-0.0446
16,MGMT C150 (UniProt P16455),0.102
17,MLH1 C494 (UniProt P40692),0.129
18,MED19 C163 (UniProt A0JLT2),0.258
19,MPP1 C242 (UniProt Q00013),0.459
